Structures are written as SMILES. Some of the results follow. These are further read-outs of the screen, such as a control signal, another cell line or another target. No call is given for them. Most of these compounds were active or inconclusive in the main read-out, so they are no random draw. Potencies come from curve fits of mixed quality, noted in brackets.

This assay is described as follows: qHTS Assay to Find Inhibitors of Chronic Active B-Cell Receptor Signaling. Particulars: ABC-DLBCL IkBa-CBG/CBR reporter, luminescence ratio (green luciferase fused to IkBa over red control in TMD8 lymphoma cells), 4 h. The essentials:
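Cell line TMD8 (human ABC DLBCL), stably expressing tet-inducible CBG68-IkBa fusion and CBR; IMDM/0.5% FBS; cpd up to 46 uM; dox induction, 4 h, 37C/5% CO2; dual luminescence; green/red ratio; MG132 control.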
(In general: In qHTS, concentration-response curves come from the screen itself.)

Setting [1] is: measured here: CBR red luminescence, cell number.

By AC50 is commonly meant the concentration at which the activity in the assay is half-maximal. Regarding `Cc1ccccc1Cn1cc(NC(=O)c2cc(C3CC3)on2)cn1`, under setting [1], the AC50 was 15.8 µM [falling, partial curve, poor fit]. In the case of `COc1ccccc1-c1c(C(F)(F)F)oc2cc(OC(=O)c3ccccc3[N+](=O)[O-])ccc2c1=O`, the AC50 under setting [1] was 6.31 µM [rising, partial curve, poor fit].

For the molecule `COc1ccc(C(=O)NNc2ncnc3c2cnn3-c2ccccc2)cc1`, the AC50 under setting [1] is 35.5 µM [falling, single point]. For `O=S1(=O)c2ccccc2OC(COCc2ccccc2)CN1C1CC1` (stereo unspecified), the AC50 under setting [1] was 3.26 µM [rising, partial curve, poor fit]. On to `Cc1ccc(S(=O)(=O)N2CCCCC2)cc1NC(=O)C1CCC1`, for which the AC50 was 25.9 µM [rising, single point] under setting [1] and 20.6 µM [falling, partial curve, poor fit] (measured here: IkBa-CBG green luminescence). For the molecule `COc1cccc(NC(=O)c2ccc(OC(F)(F)F)cc2)c1`, under setting [1], the AC50 is 0.731 µM [falling, full curve, poor fit]. In the case of `CC(=O)Nc1ccc(NC(=O)CSc2nc3[nH]ncc3c(=O)n2-c2ccccc2)cc1`, the AC50 under setting [1] was 0.631 µM [falling, partial curve, poor fit]. Turning to `CC(C)NC(=O)NC(=O)COC(=O)c1c2c(nc3ccccc13)CCC2`, the half-maximal activity concentration (AC50) under setting [1] is 35.5 µM [falling, single point]. As for `CC(C)c1ccc(/C=C/C(=O)N2CCOCC2)cc1`, the AC50 under setting [1] is 2.51 µM [rising, full curve].

For `O=C(NC(=S)NC(CO)Cc1ccccc1)c1ccc(F)cc1` (stereo unspecified), the AC50 under setting [1] is 35.5 µM [falling, single point].

With `O=C(Nc1nccs1)C(=O)c1c[nH]c2ccccc12`, the concentration at half-maximal activity (AC50) under setting [1] is 8.2 µM [falling, partial curve, poor fit]. Regarding `CCCCn1nc(NC(=O)COC)c2cc3cc(OC)ccc3nc21`, the AC50 under setting [1] is 2.82 µM [rising, single point].

For the molecule `COc1cccc(N2CCN(C(=O)C3CCCN(c4ncnc5c4nc4n5CCCCC4)C3)CC2)c1` (stereo unspecified), under setting [1], the AC50 is 11.2 µM [falling, partial curve]. In the case of `O=C(COc1ccccc1)Nc1ccc(Cl)cn1`, the AC50 under setting [1] is 11.2 µM [falling, single point]. Same read-out and setting: with `O=C(Nc1nnc(-c2ccccc2F)s1)C1CCCO1` (stereo unspecified) the figure was 16.4 µM [falling, partial curve, poor fit]; with `COc1ccccc1-n1c(CNc2c(C)cccc2C)nnc1SCC(=O)N1CCOCC1`, 2.59 µM [falling, full curve, poor fit]. On the same count and under the same terms, with `Cc1[nH]n(C(N)=S)c(=O)c1N=Nc1cc(-c2ccc(Br)cc2)[nH]n1` the figure was 10 µM [falling, partial curve, poor fit]; with `COc1ccccc1/C=C/C(=O)NC1CC2CCC1C2` (stereo unspecified), 3.16 µM [falling, partial curve].

Consider `COc1cccc(/C=N/N=C(\N)c2nonc2N)c1O`, for which, under setting [1], the AC50 was 14.1 µM [falling, single point]. With `COc1ccc(CCN2CC(O)=C(c3nc4ccccc4c(=O)[nH]3)C2=N)cc1OC`, the AC50 under setting [1] is 2.31 µM [rising, partial curve, poor fit]. Still for that read-out and setting: with `O=C(CSc1nnnn1C1CCCCC1)NCc1cccc(C(=O)O)c1` the figure was 25.9 µM [rising, partial curve, poor fit].

Regarding `CCc1c(C(=O)N/N=C/c2ccc(OCc3ccc(F)cc3)c(OC)c2)nnn1-c1nonc1N`, the concentration at half-maximal activity (AC50) under setting [1] is 6.31 µM [rising, partial curve, poor fit]. On the same count and under the same terms, with `Cc1cc2oc(=O)cc(-c3ccccc3)c2c(C)c1-c1ccc(N(C)C)cc1` the figure was 11.6 µM [rising, partial curve, poor fit]; with `CN([C@@H](Cc1ccc(OS(=O)(=O)c2cccc3cnccc23)cc1)C(=O)N1CCN(c2ccccc2)CC1)S(=O)(=O)c1cccc2cnccc12`, 5.8 µM [rising, full curve, poor fit]. Same read-out and setting: with `COc1ccc(S(=O)(=O)Nc2c(NC3CCCCC3)c3ccccc3oc2=O)cc1OC` the figure was 15.8 µM [falling, single point]; with `COC(=O)C1=C(C(=O)OC)C(c2ccc(OC)c(OC)c2)c2sc(=O)[nH]c2S1` (stereo unspecified), 17.8 µM [rising, single point]; with `O=C(c1cccs1)N1CCN(c2ncc(C(F)(F)F)cc2Cl)CC1`, 2.24 µM [rising, full curve, poor fit]. Take `COc1ccccc1NC(=O)CC(=O)c1cccc([N+](=O)[O-])c1`: the half-maximal activity concentration (AC50) under setting [1] was 2.24 µM [rising, partial curve, poor fit]. With `O=C1CC(c2ccco2)CC2=C1C1c3ccccc3C(=O)N1c1ccccc1N2` (stereo unspecified), under setting [1], the AC50 is 0.231 µM [falling, full curve]. With `COC(=O)c1cc(OC)c(OC)cc1NC(=O)C1CCCO1` (stereo unspecified), the AC50 under setting [1] is 29.1 µM [rising, single point]. With `Clc1ccc(-n2ncc3c(N4CCCCCC4)ncnc32)cc1`, the half-maximal activity concentration (AC50) under setting [1] is 0.517 µM [rising, full curve, poor fit]. Regarding `CCc1ccc(-c2nnn(CCC#N)n2)cc1`, the AC50 under setting [1] is 15.8 µM [rising, single point]. In the case of `COc1ccccc1NC(=S)Nc1cccc(F)c1`, the half-maximal activity concentration (AC50) under setting [1] was 5.17 µM [falling, single point]. In the case of `N#C/C(=C\c1ccncc1)c1nc2ccccc2[nH]1`, the half-maximal activity concentration (AC50) under setting [1] is 20 µM [falling, single point]. As for `C[C@@H]1C(c2ccc(F)cc2)=NN(c2ccc(Br)cc2)[C@H]1C(=O)N1CCOC1=O`, the concentration at half-maximal activity (AC50) under setting [1] was 20.6 µM [falling, partial curve, poor fit]. In the case of `O=C(Cc1cccs1)Nc1nnc(-c2ccc(F)cc2)s1`, the half-maximal activity concentration (AC50) under setting [1] is 10 µM [falling, partial curve]. For the molecule `O=C(O)C1=CC(=C(c2ccc(O)c(C(=O)O)c2)c2ccc(O)c(C(=O)O)c2)C=CC1=O`, the AC50 under setting [1] is 1.84 µM [falling, partial curve, poor fit]. In the case of `O=C(NC1CCCC1)c1cc(-c2ccccc2)on1`, the half-maximal activity concentration (AC50) under setting [1] is 11.2 µM [falling, partial curve]. Consider `CCOc1ccc(-c2nnc(-c3ccco3)o2)cc1OCC`, for which the AC50 under setting [1] is 5.62 µM [rising, partial curve, poor fit]. Consider `CC(=O)Nc1ccccc1NC(=O)C/C(C)=N/NC(=O)C(=O)Nc1cccc(Cl)c1C`, for which the AC50 under setting [1] was 12.6 µM [falling, single point].

The values are drawn from PubChem BioAssay AID493014 (National Center for Advancing Translational Sciences (NCATS), 2011).
